No constants are given. Whether binding was seen depends on the method and setting. In cells and extracts the contact can be indirect. Some entries that bind do so weakly or less than the wild type. Where a sequence is shown, tags or fusion partners need not be part of it.

Chains of the proteins cited; added tags and fusions are not shown.
UniProt P05412: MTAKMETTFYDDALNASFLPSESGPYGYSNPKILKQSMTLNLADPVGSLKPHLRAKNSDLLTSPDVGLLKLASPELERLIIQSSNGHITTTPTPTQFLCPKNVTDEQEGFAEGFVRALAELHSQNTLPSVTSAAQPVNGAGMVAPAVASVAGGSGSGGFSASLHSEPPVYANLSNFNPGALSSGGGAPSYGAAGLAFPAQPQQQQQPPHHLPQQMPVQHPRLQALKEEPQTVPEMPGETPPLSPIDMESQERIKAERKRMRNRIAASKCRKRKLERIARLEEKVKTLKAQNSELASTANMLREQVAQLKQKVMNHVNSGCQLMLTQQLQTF

This assay has as its target T1, His-tagged UHRF1 (ubiquitin-like with PHD and ring-finger domain 1) (human) (UniProt Q96T88).
T1 sequence: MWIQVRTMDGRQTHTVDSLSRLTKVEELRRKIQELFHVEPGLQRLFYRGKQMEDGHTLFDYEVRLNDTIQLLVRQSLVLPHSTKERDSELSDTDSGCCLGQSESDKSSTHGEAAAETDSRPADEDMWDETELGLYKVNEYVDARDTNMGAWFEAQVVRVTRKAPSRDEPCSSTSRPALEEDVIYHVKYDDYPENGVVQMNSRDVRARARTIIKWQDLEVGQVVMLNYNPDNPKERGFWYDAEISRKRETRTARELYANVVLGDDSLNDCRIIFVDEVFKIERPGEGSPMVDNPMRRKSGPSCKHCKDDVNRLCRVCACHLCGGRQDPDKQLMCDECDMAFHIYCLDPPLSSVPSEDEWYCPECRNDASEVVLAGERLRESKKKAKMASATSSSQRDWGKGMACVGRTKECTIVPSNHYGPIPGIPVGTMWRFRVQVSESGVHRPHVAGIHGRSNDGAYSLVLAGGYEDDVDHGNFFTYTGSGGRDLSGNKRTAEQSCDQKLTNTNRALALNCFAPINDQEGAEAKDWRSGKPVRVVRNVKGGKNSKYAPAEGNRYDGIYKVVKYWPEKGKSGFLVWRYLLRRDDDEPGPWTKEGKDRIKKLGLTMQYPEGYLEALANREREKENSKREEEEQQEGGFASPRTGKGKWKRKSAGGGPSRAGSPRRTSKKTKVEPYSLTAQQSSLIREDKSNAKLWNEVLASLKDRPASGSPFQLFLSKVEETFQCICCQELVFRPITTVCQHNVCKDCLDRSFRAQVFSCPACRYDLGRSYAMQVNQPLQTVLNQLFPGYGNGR
Briefly: co-IP; BCPAP cells cotransfected with His-tagged UHRF1 and Flag-tagged c-Jun; IP lysis buffer (20 mM Tris-HCl pH 8.0, 150 mM NaCl, 0.5% NP-40, 10% glycerol); lysate incubated with His-tag or Flag-tag antibody 3 h at 4°C, then Protein A/G beads 16 h at 4°C; bound proteins detected with His-tag or Flag-tag antibodies.

Turning to “Flag-tagged c-Jun/AP-1 (from UniProt P05412 1-331)”, the binding result was “binds”.
